Test results: PMC5696369

By UniProt entry, the sequences of proteins in these tests, tags left out.
UniProt O00471: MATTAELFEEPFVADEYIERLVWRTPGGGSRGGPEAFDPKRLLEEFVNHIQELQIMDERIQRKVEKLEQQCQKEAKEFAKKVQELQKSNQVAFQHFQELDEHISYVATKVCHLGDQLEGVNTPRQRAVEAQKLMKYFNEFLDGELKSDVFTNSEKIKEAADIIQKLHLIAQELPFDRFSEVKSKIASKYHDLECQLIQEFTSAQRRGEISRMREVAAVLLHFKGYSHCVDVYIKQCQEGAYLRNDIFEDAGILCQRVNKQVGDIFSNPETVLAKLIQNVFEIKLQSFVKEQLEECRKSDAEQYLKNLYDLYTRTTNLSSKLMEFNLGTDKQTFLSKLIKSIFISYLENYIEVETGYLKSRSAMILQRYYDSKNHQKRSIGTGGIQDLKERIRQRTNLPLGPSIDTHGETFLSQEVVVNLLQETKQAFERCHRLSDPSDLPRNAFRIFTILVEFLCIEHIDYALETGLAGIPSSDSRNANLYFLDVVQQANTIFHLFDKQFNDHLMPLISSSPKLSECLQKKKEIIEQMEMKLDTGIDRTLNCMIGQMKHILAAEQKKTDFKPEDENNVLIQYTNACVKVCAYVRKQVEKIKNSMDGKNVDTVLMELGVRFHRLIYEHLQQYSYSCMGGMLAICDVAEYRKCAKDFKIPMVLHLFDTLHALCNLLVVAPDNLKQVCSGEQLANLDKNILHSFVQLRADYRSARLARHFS
UniProt Q9UPT5: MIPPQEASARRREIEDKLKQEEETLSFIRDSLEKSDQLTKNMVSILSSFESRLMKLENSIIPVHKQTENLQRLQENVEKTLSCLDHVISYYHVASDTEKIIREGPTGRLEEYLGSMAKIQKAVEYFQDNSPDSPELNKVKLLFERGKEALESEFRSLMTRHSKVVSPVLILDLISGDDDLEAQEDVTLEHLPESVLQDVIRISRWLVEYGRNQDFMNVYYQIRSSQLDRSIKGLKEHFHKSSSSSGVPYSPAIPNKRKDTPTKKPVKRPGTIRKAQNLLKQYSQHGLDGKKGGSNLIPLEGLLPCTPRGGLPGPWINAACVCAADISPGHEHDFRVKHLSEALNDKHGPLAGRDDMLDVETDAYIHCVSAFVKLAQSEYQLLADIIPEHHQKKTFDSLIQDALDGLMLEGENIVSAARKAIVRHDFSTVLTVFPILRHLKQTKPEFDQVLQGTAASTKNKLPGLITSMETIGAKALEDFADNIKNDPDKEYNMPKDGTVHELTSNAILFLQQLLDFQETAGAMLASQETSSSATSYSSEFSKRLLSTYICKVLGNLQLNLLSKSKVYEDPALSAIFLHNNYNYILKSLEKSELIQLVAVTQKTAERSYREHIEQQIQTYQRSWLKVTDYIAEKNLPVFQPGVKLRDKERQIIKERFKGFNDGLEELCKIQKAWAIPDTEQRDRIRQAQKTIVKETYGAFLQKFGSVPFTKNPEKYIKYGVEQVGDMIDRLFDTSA

Key:
[1] = target: T1, FLAG-tagged DPPA3 1-60 aa-mVenus (mouse) (UniProt Q8QZY3); test: affinity purification with mass spectrometry; anti-FLAG M2 affinity gel on lysates of transiently transfected HEK 293T cells (IP buffer: 50 mM Tris pH 7.4, 150 mM NaCl, 10% glycerol, 1% Triton X-100), 4 °C; washed twice with 500 mM NaCl buffer, then six times with IP buffer; eluted with FLAG …; CBB-stained bands of 75-100 kDa cut out and identified by LC-MS/MS
T1 sequence: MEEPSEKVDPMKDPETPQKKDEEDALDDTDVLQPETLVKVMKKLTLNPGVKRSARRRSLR

[2] = target: T2, FLAG-tagged DPPA3 WT (1-150 aa)-mVenus (mouse) (UniProt Q8QZY3); test: as above
T2 sequence: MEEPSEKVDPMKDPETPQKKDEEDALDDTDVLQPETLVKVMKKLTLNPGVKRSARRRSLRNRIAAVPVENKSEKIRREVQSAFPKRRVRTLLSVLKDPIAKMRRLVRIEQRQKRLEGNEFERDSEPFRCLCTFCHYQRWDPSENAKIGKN

| Substance | binding [1] | binding [2] |
| --- | --- | --- |
| EXOC5 (from UniProt O00471 1-708) | binds | binds |
| EXOC7 (from UniProt Q9UPT5 1-735) | binds | binds |

These are yes or no findings as the source states them, for the method shown. Binding seen in cells or lysates may run through a third protein. A yes stands for co-enrichment or nearness to the bait. Other partners may have been found. Sequences can lack the tags named with a protein.
